# Assay results published in the supplement of paper PMC12823440, “Inhibitors supercharge kinase turnover through native proteolytic circuits” (Nature, 2025).
# Sequences of proteins named here, by UniProt entry; tags and fusion partners are left off. A change or cut given only in a name is not applied to a line headed by its entry.
# UniProt Q16288, whole entry, looked up: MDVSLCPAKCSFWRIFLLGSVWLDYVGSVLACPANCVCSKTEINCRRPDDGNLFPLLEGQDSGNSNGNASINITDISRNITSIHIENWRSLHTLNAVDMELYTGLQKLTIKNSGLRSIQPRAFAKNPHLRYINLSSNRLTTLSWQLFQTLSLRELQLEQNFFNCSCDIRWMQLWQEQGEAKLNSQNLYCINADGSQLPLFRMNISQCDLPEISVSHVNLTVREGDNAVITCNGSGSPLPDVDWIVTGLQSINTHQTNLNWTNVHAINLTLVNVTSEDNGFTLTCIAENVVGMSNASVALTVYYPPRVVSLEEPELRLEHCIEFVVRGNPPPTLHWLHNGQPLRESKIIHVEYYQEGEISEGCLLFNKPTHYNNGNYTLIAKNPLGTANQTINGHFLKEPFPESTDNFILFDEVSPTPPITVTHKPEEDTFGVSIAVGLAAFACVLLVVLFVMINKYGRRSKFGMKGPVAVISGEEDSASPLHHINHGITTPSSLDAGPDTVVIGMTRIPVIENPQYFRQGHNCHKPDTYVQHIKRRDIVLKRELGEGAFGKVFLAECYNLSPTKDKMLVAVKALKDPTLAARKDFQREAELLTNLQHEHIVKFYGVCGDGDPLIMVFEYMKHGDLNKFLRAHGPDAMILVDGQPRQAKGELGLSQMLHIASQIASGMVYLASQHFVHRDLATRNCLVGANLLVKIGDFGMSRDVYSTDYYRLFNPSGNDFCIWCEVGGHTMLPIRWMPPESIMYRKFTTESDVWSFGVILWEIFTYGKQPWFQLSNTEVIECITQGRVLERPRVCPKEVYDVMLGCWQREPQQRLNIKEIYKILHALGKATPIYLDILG
# UniProt O96013: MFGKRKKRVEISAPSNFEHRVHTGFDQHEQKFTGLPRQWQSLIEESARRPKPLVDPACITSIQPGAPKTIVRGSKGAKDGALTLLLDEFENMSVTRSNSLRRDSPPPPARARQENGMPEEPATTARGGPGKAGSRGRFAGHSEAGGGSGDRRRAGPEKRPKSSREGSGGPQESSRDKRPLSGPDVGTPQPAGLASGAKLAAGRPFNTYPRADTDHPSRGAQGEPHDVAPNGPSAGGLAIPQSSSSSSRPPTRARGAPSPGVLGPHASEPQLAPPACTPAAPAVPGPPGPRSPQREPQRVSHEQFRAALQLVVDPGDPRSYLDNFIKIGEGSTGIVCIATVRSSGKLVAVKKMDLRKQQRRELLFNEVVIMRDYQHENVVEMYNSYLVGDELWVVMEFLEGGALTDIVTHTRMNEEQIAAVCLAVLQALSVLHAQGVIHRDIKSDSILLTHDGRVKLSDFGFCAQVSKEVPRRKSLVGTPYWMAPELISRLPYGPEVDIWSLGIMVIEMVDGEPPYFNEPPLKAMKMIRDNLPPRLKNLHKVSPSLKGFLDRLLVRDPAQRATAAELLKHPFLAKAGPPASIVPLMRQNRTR
# UniProt Q96KB5: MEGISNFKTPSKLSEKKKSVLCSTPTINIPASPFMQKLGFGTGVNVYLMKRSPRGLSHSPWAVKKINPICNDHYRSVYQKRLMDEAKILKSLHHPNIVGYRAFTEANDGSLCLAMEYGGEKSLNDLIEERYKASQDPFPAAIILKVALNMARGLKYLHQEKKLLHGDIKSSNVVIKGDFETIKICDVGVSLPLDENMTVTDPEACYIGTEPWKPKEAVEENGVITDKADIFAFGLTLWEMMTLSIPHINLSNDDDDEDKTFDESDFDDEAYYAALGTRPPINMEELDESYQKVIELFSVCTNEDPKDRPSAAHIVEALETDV
# UniProt P09619, whole entry: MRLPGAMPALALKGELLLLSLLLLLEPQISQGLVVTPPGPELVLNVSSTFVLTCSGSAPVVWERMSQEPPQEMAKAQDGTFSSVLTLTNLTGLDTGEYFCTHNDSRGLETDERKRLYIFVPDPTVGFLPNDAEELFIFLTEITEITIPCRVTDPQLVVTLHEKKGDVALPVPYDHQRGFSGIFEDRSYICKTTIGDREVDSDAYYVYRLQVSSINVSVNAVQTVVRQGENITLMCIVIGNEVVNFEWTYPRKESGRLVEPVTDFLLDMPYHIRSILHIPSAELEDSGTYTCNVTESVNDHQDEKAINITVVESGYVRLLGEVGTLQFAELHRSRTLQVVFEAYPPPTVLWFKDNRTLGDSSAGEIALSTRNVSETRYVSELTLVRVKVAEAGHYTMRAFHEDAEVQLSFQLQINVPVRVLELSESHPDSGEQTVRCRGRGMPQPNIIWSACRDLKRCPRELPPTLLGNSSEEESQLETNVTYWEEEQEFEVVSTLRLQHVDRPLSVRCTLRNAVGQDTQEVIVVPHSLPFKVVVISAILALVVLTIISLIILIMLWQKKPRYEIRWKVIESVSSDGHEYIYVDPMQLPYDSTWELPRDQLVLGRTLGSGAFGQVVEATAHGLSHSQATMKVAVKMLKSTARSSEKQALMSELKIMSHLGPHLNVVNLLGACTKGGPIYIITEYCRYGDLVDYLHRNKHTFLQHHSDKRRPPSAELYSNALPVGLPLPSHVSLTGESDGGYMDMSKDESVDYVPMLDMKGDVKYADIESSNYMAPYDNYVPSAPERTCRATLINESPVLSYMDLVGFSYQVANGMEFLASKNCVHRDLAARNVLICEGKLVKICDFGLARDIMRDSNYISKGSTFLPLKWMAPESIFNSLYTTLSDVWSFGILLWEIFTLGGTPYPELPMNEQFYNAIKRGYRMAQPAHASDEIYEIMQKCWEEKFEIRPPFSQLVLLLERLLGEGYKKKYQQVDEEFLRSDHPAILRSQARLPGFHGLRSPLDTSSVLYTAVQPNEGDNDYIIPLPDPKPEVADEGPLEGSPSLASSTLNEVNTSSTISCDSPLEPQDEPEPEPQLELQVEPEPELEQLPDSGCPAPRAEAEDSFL
# UniProt Q15118, whole entry, looked up: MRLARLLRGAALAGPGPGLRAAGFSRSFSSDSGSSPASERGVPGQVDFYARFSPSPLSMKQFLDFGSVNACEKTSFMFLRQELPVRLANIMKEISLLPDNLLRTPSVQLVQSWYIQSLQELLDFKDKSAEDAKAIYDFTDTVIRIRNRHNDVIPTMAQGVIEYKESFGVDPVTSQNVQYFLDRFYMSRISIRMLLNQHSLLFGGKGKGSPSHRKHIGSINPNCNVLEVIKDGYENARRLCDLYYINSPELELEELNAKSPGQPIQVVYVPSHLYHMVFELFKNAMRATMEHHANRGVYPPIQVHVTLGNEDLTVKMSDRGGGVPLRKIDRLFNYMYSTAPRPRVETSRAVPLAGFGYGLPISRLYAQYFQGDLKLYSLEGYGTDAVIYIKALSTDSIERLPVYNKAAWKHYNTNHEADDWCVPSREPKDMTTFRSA
# UniProt O15530: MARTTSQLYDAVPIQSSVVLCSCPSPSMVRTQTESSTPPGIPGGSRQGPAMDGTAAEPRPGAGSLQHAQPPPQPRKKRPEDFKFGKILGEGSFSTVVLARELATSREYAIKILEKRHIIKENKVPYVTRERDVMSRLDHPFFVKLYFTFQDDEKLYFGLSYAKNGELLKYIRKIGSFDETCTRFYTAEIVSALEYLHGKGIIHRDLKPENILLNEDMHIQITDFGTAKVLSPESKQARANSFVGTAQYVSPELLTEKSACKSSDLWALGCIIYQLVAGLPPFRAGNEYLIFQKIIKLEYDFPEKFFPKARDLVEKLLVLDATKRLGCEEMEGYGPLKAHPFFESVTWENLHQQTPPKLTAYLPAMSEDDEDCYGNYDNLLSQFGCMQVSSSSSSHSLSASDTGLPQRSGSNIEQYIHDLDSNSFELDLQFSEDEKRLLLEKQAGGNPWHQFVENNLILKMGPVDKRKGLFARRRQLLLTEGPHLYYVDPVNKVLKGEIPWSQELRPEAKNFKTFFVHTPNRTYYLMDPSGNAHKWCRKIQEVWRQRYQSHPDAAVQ
# UniProt Q9UBF8: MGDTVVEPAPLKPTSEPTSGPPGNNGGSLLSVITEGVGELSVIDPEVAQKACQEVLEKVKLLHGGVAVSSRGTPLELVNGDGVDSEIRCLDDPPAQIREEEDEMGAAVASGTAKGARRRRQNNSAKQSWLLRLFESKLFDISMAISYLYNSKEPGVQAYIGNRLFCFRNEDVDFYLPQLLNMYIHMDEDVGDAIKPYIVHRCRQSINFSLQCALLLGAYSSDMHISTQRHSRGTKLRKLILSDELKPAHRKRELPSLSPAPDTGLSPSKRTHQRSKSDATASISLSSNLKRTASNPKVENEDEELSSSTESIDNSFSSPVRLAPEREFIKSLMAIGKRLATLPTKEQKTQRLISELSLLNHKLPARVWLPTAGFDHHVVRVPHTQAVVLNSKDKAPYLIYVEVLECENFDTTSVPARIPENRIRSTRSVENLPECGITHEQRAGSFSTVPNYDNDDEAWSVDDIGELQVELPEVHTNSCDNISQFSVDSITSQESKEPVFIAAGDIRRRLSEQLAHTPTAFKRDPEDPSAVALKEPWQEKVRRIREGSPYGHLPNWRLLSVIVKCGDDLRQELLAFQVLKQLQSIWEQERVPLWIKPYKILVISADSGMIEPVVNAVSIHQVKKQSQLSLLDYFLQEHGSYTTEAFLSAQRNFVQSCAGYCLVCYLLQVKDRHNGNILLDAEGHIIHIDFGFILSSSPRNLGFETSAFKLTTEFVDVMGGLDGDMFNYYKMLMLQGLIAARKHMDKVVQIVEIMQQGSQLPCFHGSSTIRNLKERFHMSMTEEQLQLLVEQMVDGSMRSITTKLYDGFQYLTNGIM
# UniProt P53350, whole entry: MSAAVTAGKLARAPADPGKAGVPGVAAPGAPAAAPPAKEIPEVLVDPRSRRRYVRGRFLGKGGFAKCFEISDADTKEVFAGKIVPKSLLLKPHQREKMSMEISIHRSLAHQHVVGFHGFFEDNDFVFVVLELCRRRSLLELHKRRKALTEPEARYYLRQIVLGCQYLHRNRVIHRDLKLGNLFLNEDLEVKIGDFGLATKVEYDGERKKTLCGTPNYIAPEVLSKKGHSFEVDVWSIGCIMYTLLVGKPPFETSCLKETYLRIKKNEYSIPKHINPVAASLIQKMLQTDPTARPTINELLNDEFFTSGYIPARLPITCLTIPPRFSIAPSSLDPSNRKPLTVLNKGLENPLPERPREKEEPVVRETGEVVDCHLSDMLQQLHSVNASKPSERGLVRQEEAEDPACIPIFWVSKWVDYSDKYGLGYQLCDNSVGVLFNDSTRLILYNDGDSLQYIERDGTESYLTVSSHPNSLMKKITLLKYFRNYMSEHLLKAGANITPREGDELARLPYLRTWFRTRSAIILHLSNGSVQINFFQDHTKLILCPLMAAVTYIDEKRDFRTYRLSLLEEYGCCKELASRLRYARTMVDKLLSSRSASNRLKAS
# UniProt Q13131: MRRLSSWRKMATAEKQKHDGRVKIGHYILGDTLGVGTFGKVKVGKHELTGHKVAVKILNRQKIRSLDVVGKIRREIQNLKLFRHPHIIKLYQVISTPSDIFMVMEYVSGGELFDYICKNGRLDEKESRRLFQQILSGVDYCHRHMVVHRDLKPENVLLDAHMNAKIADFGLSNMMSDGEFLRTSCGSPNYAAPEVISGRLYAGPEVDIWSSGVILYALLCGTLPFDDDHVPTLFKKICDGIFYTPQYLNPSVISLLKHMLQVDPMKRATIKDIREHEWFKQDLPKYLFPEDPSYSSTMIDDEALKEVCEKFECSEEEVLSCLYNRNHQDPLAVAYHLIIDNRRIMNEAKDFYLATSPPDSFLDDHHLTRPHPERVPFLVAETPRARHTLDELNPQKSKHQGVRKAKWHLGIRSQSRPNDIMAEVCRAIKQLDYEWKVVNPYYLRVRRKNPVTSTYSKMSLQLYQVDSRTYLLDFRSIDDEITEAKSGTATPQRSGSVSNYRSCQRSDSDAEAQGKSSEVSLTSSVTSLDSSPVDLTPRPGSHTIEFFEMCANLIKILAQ
# The other results are listed elsewhere or left out. The calls rarely recur for the same compound in another form.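 Kinases, fused to nanoluciferase, were expressed in K562 cells; luminescence was measured every 4 h from 2 to 18 h as percent of control (DMSO = 100%, positive control = 0%). A time point is decreased if signal falls significantly (2 sigma). Hits were called by the authors by a rule that is not shown; the count of time points alone does not decide it.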
# Experiments:
# Test in all cases: number of time points (of 5) at which kinase-Nluc abundance scored as decreased, DMSO-normalised (count); higher = more persistent destabilization
# Settings in all cases: K562; 2-18 h
# [1] = biological target: NTRK3 (UniProt Q16288)
# [2] = biological target: PAK4 (UniProt O96013)
# [3] = biological target: PBK (UniProt Q96KB5)
# [4] = biological target: PDGFRB (UniProt P09619)
# [5] = biological target: PDK1 (UniProt Q15118)
# [6] = biological target: PDPK1 (UniProt O15530)
# [7] = biological target: PIK4CA (UniProt P42356)
# [8] = biological target: PIK4CB (UniProt Q9UBF8)
# [9] = biological target: PLK1 (UniProt P53350)
# [10] = biological target: PRKAA1 (UniProt Q13131)
SMILES,number of time points [1],number of time points [2],number of time points [3],number of time points [4],number of time points [5],number of time points [6],number of time points [7],number of time points [8],number of time points [9],number of time points [10]
Nc1nc(F)nc2c1ncn2[C@@H]1O[C@H](CO)[C@@H](O)[C@@H]1O [Fludarabine] (10 µM),0,0,0,0,0,0,0,0,0,0
CCc1c(C(=O)NNC(=O)C(O)c2cc(F)cc(F)c2)ccc(O)c1C (stereo not given) (10 µM),0,0,0,0,0,0,0,0,0,0
O=S(=O)(NCCCN1c2ccccc2CCc2ccc(Cl)cc21)c1ccc(OC(F)(F)F)cc1 (2.5 µM),0,0,0,0,0,0,0,0,0,0
C=CC(=O)Nc1cccc(Nc2nc(Nc3ccc(N4CCN(C(C)=O)CC4)cc3OC)ncc2C(F)(F)F)c1 [Rociletinib] (10 µM),0,0,0,0,0,0,0,0,0,2
Cc1c(-c2c(F)cc(C(N)=O)c3[nH]c4c(c23)CC[C@H](C(C)(C)O)C4)cccc1-n1c(=O)c2cccc(F)c2n(C)c1=O (2.5 µM),0,0,0,0,0,0,0,0,0,0
COc1cc2ncc(-c3ccccc3)nc2cc1OC [Tyrphostin AG1296] (10 µM),0,0,0,0,0,1,0,0,0,0
COc1ccccc1-c1cc(Nc2cccc(CS(N)(=O)=O)c2)ncn1 (10 µM),3,0,0,0,0,2,0,0,0,1
O=C1Nc2ccc(C(=O)c3ccco3)cc2C1=Cc1cc(Cl)c(O)c(Cl)c1 (2.5 µM),0,0,2,0,0,3,0,1,4,0
C[C@@H]1CCN(C(=O)CC#N)C[C@@H]1N(C)c1ncnc2[nH]ccc12 [Tofacitinib] (10 µM),0,0,0,–,0,0,0,0,0,0
Cc1ccc2nc(NCCN)c3ncc(C)n3c2c1 (2.5 µM),0,0,0,0,0,–,0,0,0,0
CCC(C)N1c2ccccc2C(=O)N(C)c2cnc(Nc3ccc(C(=O)N4CCC(N5CCN(C)CC5)CC4)cc3OC)nc21 (stereo not given) (2.5 µM),0,0,0,0,0,0,0,0,0,0
C[C@H](c1ccnc(Nc2nc3ccc(-c4cc(N(C)C)ncn4)cc3[nH]2)c1)N1CCN(C(=O)CC(F)(F)F)CC1 (2.5 µM),0,0,0,0,0,0,0,0,0,0
Cc1cccc(-c2[nH]ncc2-c2ccc(F)c(-c3cnn(CCO)c3)c2)n1 (10 µM),0,0,0,0,0,0,0,0,0,0
Cc1cccc(Oc2cnc(=O)[nH]c2)c1 [Tolimidone] (10 µM),0,0,0,0,0,0,0,0,0,0
Cc1[nH]c(/C=C2\C(=O)Nc3ccccc32)c(C)c1CCC(=O)O [(Z)-Orantinib] (10 µM),0,0,0,0,0,0,0,0,0,0
COc1cccc(OC)c1C(=O)OCc1cc(O)ccc1O[C@@H]1O[C@H](CO)[C@@H](O)[C@H](O)[C@H]1O [Curculigoside] (10 µM),0,0,0,0,0,0,0,0,0,0
C=CC(=O)Nc1cc(Nc2ncc(Cl)c(-c3c[nH]c4ccccc34)n2)c(OC)cc1N(C)CCN(C)C [Mutant EGFR inhibitor] (2.5 µM),2,0,0,0,0,3,0,2,0,0

SMILES,number of time points [1],number of time points [2],number of time points [3],number of time points [4],number of time points [5],number of time points [6],number of time points [7],number of time points [8],number of time points [9],number of time points [10]
O=C(N/N=C/c1coc2ccccc2c1=O)c1cccnc1 (10 µM),0,0,0,0,0,0,0,0,0,0
COc1cc(Nc2ncc(F)c(Nc3ccc4c(n3)NC(=O)C(C)(C)O4)n2)cc(OC)c1OC (10 µM),–,0,0,0,0,0,0,0,0,0
COc1ccc2c(OCc3nnc4ccc(-c5ccccc5)nn34)ccnc2c1 (2 µM),0,0,0,0,0,0,0,0,0,0
Cc1c(NC(=O)c2cccn(-c3ccc(F)cc3)c2=O)ccc(Oc2ccnc(NC(=O)C3CC3)c2)c1C (2 µM),1,0,0,3,0,4,0,0,1,0
O=C(NCCN1CCOCC1)c1cc2c(Oc3ccc(NC(=O)C4(C(=O)Nc5ccc(F)cc5)CC4)cc3)ccnc2[nH]1 [Tyrosine kinase inhibitor] (10 µM),0,0,0,1,0,0,0,0,0,0
Cc1cc(Nc2ncnc3ccc(NC4=NC(C)(C)CO4)cc23)ccc1Oc1ccn2ncnc2c1 [Tucatinib] (2.5 µM),0,0,0,0,0,0,0,0,0,0
Cc1ccccc1-c1c2nccc(-c3ccc(F)cc3F)c2cc[n+]1[O-] (10 µM),0,0,0,0,0,0,0,0,0,0
COc1cc(Nc2ncc(F)c(Nc3ccc4c(n3)NC(=O)C(C)(C)O4)n2)cc(OC)c1OC [R406 (free base)] (10 µM),–,0,0,0,0,0,0,0,0,0
CCOc1ccc2cc(-c3nn(CC4CCN(C)CC4)c4ncnc(N)c34)ccc2n1 (10 µM),0,0,0,0,0,0,0,0,0,0
C[C@@H]1CCN(C(=O)CC#N)C[C@@H]1N(C)c1ncnc2[nH]ccc12 [Tofacitinib (citrate)] (10 µM),0,0,0,–,0,0,0,0,0,0
S=C(SSC(=S)N1CCOCC1)N1CCOCC1 (10 µM),0,0,0,0,0,3,0,3,0,0
Cn1cc(-c2cnn3c(N)c(Br)c([C@@H]4CCCNC4)nc23)cn1 (2.5 µM),1,0,0,1,0,2,2,0,0,0
COc1cc(Nc2ncc(F)c(Nc3ccc4c(n3)N(COP(=O)(O)O)C(=O)C(C)(C)O4)n2)cc(OC)c1OC [Fostamatinib Disodium] (10 µM),0,0,0,3,0,0,0,0,0,0
C[C@@H](c1ccc(-c2ccccc2)c(F)c1)c1cc(NC(=N)N2CCOCC2)on1 [Rimacalib] (10 µM),0,0,0,0,0,0,0,0,0,0
CNC(=O)c1cc(COc2nnc(Nc3ccc(Cl)cc3)c3ccoc23)ccn1 [Telatinib] (10 µM),0,0,0,0,0,0,0,0,0,0
Cn1cc(-c2ccc3c(c2)CCN3C(=O)Cc2cccc(C(F)(F)F)c2)c2c(N)ncnc21 (2.5 µM),0,0,0,0,0,0,0,0,0,0

# In another format: entries from further up
SMILES	number of time points [1]	number of time points [2]	number of time points [3]	number of time points [4]	number of time points [5]	number of time points [6]	number of time points [7]	number of time points [8]	number of time points [9]	number of time points [10]
C[C@@H]1CCN(C(=O)CC#N)C[C@@H]1N(C)c1ncnc2[nH]ccc12 [Tofacitinib (citrate)] (10 µM)	0	0	0	–	0	0	0	0	0	0
S=C(SSC(=S)N1CCOCC1)N1CCOCC1 (10 µM)	0	0	0	0	0	3	0	3	0	0
